Laboratory results from patent US20160074471A1.
These are yes or no findings as the source states them, for the method shown. Binding seen in cells or lysates may run through a third protein. A result given as binding can be weak or reduced; the word gives no strength. Where a sequence is shown, tags or fusion partners need not be part of it.

Experiments:
[1] = target: GST-HDAC3; assay: GST pull-down from 293T cells transfected with GST-HDAC3 and Flag-sLZIP, immunoblot (FIG. 4E)
[2] = target: GST-HDAC3; assay: conclusion of Example 3 from the GST pull-down (FIG. 4E)
[3] = target: GST-HDAC3; assay: GST pull-down from 293T cells transfected with GST-HDAC3 and Flag-sLZIP (FIG. 5D); HDAC3 stayed bound to sLZIP after 10 nM RZD
[4] = target: GST-PPARγ2; assay: GST pull-down from 293T cells transfected with GST-PPARγ2 and Flag-sLZIP, without RZD (FIG. 5A); dissociated after 10 nM RZD
[5] = target: GST-HDAC3; assay: GST pull-down
[6] = target: GST-PPARγ2; assay: GST pull-down from 293T cells transfected with GST-PPARγ2 and Flag-sLZIP, immunoblot (FIG. 2B)

Measured: binding

B1: Flag-sLZIP (protein, not shown: small tags and cut ends)
chain: MELELDAGDQDLLAFLLEESGDLGTAPDEAVRAPLDWALPLSEVPSDWEVDDLLCSLLSPPASLNILSSSNPCLVHHDHTYSLPRETVSMDLESESCRKEGTQMTPQHMEELAEQEIARLVLTDEEKSLLEKEGLILPETLPLTKTEEQILKRVRRKIRNKRSAQESRRKKKVYVGGLESRVLKYTAQNMELQNKVQLLEEQNLSLLDQLRKLQAMVIEISNKTSSSSMYSSDTRGSLPAEHGVLSRQLRALPSEDPYQLELPALQSEVPKDSTHQWLDGSDCVLQAPGNTSCLLHYMPQAPSAEPPLEWPFPDLFSEPLCRGPILPLQANLTRKGGWLPTGSPSVILQDRYSG
binds: [1] | [2] | [3] | [4] | [5] | [6]
